The subject of data set [1] is noci-TRAP^hM4 mice. As to the kind of experiment: Elevated plus maze. The data set is classed as in vivo.
The test system of data set [2] is noci-TRAP^hM4 mice. As to the kind of experiment: Sucrose-water preference assay. In kind it is in vivo.

Take `C[N+]1([O-])CCN(C2=Nc3cc(Cl)ccc3Nc3ccccc32)CC1` [CNO, clozapine-N-oxide]: in the data set on noci-TRAP^hM4 mice [1] (CNO 10 mg/kg versus saline), the average velocity entry is reported as “No effect” and the total distance traveled entry was “No effect”. In addition, the “visits to and occupancy of the open arms” value in the data set with noci-TRAP^hM4 mice [1] (saline or CNO) was “equivalent”. The “% sucrose preference over water” value in the data set with noci-TRAP^hM4 mice [2] (first and second days (Sessions 1 and 2), versus saline) is “significant sucrose preference”. In the data set with noci-TRAP^hM4 mice [2] (relative to controls), the sucrose preference development entry was “no retarding effects”. The lick rates result in the data set on noci-TRAP^hM4 mice [2] (relative to controls, 10% sucrose spout) is listed as “no retarding effects”. The sucrose reward result in the data set on noci-TRAP^hM4 mice [2] (sucrose-naïve conditions) was “enhanced”.

Values taken from US20210220489A1, “AMYGDALAR NEURAL ENSEMBLE THAT ENCODES THE UNPL[…] PAIN” (The Board of Trustees of the Leland Stanford Junior …, priority 2020, published 2021).
